PMC11324517 (Nature, 2024)
No constants are given. Whether binding was seen depends on the method and setting.

Target: Δ-hDAT (human dopamine transporter lacking the N-terminal 56 residues, with the thermostabilising mutation I248Y) (human) (UniProt Q01959)
Experiment: cryo-EM structure + SEC; detergent-solubilised, purified Δ-hDAT (digitonin/CHS, 50 mM HEPES pH 7.8, 200 mM NaCl, with MRS7292 and β-CFT); single-particle classifications and biochemical analysis (FSEC of the purified protein); both purified

For “Δ-hDAT (human dopamine transporter lacking the N-terminal 56 residues, with the thermostabilising mutation I248Y) (from UniProt Q01959 57-620)”, the binding was “no binding”.
